Assay results taken from article PMC12608094, “STN1 Shields CTC1 From TRIM32‐Mediated Ubiquitination to Prevent Cellular Aging” (Aging Cell, 2025).
Results are given in words; binding and its absence hold for the method and conditions named. In cells and extracts the contact can be indirect. Some binding calls cover weakened binding; strength is not graded here.

Sequences of proteins named here, by UniProt entry; tags and fusion partners are left off.
UniProt Q96AP0: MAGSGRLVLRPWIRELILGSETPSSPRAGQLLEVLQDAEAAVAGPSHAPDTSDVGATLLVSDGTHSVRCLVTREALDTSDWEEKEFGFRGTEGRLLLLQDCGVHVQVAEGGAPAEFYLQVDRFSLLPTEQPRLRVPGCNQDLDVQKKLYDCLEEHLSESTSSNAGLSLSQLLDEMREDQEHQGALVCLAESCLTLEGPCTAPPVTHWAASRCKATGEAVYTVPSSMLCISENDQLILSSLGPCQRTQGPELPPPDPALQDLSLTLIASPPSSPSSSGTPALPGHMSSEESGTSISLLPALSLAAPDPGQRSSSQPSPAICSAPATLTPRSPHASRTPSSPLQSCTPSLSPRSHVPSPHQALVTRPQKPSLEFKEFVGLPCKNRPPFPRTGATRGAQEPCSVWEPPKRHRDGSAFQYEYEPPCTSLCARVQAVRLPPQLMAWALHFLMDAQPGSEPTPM

Molecular target: T1, YFPc-CTC1 (human) (UniProt Q2NKJ3)
T1 sequence: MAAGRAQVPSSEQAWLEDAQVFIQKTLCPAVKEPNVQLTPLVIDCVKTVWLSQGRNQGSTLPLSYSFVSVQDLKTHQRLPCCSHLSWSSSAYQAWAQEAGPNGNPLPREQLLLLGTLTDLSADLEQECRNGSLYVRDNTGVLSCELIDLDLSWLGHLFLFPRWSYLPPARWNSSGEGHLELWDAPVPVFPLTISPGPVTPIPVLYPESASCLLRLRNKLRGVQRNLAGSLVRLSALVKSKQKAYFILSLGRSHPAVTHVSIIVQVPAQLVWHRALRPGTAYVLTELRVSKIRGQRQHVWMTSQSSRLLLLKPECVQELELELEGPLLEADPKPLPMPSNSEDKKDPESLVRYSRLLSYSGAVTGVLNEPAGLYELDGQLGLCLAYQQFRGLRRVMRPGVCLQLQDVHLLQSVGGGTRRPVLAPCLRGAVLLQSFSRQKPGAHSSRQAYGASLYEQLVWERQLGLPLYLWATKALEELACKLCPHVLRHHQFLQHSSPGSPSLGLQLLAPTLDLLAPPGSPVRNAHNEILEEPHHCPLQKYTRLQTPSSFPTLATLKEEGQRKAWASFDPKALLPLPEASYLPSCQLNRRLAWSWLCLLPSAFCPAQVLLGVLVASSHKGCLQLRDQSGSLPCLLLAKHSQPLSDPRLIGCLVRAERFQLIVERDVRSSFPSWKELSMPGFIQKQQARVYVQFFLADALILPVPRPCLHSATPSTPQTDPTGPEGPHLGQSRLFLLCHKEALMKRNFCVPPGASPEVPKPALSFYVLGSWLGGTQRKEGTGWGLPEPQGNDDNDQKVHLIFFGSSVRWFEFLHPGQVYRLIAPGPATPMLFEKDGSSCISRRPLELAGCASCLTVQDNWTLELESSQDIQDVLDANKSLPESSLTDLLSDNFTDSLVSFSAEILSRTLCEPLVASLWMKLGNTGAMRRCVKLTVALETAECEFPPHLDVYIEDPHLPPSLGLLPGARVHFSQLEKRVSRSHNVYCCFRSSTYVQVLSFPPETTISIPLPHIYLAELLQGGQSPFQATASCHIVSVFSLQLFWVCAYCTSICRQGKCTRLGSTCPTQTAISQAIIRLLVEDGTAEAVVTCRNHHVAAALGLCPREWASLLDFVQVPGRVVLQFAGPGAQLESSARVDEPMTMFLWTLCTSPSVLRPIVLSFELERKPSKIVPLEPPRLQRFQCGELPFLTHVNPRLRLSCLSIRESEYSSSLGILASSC
Assay: split reporter; BiFC with YFPn and YFPc fragments in HEK293T cells; YFP signals read by flow cytometry 48 h after transfection

binding: binds
Substance: YFPn-TPP1 (from UniProt Q96AP0 1-458)
